This is one part of the list.
Experiments:
Assay in all cases: log2 fold change, soluble protein after heating vs DMSO (PISA); higher = thermal stabilisation; K562 lysate, 10 uM; active = over 0.2 and 3.5 SD of the protein, either way, in both replicates (recomputed)
dasatinib = compound: Cc1nc(Nc2ncc(C(=O)Nc3c(C)cccc3Cl)s2)cc(N2CCN(CCO)CC2)n1 [dasatinib]
How it was run: (§1)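 Pellets of K562 cells were dounce-homogenised in PBS pH 7.4 with 1 mM MgCl2, and the crude extract was held at 1 mg/mL protein for a 30 min treatment with 10 μM compound. Aliquots were heated for 3 min over 48°C-58°C and pooled before NP-40 was added to 0.5% at 4°C. The supernatant from 21,000xg for 90 min was quantified by TMTpro 16plex LC-MS/MS with channel sums equalised. Values are reported from duplicates as log-two fold change in thermal stability relative to solvent controls.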

Amino acid sequences for entries named in this document (tags omitted). A change or cut given only in a name is not applied to a line headed by its entry.
UniProt Q99735: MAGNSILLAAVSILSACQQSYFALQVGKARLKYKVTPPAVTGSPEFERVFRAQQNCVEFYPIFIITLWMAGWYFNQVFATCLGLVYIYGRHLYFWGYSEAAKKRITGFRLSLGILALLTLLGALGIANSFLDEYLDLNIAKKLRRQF
UniProt O60291: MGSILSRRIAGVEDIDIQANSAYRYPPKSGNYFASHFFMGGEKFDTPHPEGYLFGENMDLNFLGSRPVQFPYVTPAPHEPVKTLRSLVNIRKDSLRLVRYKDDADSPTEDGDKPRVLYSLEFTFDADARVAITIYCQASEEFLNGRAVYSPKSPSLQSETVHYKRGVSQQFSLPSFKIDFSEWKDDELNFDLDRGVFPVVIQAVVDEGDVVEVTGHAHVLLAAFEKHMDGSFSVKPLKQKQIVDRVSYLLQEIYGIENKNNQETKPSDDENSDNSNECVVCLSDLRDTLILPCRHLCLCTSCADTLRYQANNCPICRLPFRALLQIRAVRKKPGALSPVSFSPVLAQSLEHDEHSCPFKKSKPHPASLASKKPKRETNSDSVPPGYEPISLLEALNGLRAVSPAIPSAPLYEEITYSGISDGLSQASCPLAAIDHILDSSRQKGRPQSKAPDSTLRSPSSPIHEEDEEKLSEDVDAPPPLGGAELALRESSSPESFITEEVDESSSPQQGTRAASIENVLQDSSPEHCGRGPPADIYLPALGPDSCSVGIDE
UniProt Q7L4E1: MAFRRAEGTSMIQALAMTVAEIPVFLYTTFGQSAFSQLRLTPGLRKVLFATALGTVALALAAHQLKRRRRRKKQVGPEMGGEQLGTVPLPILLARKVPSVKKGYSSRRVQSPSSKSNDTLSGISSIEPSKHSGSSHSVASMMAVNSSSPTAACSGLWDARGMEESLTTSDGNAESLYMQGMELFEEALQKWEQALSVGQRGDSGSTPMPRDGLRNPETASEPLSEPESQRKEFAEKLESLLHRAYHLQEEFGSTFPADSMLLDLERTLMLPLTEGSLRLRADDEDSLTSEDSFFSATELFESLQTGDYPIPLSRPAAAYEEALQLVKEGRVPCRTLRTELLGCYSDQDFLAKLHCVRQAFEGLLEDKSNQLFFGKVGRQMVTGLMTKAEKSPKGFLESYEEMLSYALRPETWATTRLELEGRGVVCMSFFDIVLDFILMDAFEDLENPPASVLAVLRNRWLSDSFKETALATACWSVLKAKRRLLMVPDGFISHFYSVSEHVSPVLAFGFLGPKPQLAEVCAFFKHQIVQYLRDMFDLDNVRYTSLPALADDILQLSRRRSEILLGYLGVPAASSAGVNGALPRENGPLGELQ
UniProt Q9NPA3, whole entry, looked up: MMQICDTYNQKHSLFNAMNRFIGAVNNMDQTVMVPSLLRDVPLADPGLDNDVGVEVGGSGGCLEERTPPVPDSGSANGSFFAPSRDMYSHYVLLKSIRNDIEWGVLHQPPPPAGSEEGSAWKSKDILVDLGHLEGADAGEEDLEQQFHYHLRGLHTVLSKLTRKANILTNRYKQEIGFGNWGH
UniProt Q8N344: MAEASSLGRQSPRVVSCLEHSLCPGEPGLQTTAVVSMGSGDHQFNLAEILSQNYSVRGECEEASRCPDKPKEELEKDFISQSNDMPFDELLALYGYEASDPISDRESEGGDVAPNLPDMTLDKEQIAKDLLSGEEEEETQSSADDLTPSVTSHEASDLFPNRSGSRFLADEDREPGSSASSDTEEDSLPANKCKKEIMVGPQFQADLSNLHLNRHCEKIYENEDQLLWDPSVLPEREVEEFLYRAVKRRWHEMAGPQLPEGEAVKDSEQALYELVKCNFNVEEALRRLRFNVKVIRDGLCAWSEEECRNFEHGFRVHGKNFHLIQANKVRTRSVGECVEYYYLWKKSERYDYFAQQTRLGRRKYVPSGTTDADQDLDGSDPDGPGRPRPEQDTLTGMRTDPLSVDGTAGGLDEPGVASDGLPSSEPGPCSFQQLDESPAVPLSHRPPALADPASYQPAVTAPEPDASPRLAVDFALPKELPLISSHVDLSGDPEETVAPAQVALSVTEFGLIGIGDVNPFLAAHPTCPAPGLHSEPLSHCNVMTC
UniProt O96033: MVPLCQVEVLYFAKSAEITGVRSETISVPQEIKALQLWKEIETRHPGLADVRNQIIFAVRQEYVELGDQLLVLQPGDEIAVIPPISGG
UniProt Q8N3R9: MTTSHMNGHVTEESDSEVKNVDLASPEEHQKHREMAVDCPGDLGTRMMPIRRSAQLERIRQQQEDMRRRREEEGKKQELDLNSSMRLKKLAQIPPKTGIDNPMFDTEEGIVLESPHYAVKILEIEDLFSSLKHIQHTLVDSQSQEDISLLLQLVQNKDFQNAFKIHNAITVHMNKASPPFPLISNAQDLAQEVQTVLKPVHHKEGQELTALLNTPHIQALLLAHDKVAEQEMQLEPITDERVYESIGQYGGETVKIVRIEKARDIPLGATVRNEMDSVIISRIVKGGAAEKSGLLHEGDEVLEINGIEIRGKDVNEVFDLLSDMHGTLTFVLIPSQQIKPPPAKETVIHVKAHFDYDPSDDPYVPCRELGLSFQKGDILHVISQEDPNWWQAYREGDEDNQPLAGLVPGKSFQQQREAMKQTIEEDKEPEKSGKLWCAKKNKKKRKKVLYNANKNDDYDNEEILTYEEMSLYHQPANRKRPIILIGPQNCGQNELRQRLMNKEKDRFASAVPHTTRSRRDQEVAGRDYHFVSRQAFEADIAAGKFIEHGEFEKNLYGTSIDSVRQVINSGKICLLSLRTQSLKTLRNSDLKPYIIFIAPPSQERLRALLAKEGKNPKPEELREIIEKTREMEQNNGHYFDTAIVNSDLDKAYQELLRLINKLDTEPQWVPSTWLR
UniProt P50219: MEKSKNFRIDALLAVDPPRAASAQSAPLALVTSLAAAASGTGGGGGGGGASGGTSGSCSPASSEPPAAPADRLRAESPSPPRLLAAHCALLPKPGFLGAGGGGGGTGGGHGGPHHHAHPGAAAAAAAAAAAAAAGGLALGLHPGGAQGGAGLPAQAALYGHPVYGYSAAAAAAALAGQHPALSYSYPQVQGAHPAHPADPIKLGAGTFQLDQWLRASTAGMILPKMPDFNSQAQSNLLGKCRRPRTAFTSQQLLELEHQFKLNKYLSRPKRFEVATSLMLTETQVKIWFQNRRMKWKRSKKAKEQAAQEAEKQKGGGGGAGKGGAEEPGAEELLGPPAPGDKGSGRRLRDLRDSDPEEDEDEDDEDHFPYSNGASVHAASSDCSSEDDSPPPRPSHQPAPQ
UniProt Q8NBR6: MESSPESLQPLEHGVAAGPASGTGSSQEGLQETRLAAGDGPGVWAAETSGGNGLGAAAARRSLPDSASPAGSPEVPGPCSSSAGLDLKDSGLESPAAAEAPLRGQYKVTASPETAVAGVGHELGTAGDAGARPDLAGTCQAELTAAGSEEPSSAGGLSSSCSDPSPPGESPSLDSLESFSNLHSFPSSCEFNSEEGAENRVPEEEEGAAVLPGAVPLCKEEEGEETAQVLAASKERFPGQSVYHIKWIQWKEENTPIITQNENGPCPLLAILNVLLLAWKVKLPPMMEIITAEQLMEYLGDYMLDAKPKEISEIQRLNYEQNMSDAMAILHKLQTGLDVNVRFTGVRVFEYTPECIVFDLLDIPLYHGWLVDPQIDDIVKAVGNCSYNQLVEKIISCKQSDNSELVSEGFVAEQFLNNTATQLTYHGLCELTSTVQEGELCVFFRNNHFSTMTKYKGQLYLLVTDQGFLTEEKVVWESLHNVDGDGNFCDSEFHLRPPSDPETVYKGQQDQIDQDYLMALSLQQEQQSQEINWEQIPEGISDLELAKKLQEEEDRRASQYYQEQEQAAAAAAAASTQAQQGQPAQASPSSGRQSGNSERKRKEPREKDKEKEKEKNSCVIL
UniProt Q99583: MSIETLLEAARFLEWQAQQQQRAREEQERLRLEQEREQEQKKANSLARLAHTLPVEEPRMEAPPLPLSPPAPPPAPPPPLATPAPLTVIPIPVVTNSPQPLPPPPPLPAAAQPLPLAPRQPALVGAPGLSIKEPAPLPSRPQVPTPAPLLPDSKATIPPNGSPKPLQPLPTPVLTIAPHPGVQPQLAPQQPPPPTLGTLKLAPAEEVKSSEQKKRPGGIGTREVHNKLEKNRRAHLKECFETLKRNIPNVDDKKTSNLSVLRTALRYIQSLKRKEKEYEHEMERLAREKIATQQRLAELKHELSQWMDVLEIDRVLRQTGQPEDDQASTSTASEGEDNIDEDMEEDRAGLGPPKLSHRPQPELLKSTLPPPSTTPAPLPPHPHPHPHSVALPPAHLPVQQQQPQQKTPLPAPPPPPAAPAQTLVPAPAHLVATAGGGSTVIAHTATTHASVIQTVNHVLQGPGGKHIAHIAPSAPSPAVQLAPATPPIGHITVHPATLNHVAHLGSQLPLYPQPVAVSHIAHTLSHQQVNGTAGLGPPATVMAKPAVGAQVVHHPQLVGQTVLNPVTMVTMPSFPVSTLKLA
UniProt P25325: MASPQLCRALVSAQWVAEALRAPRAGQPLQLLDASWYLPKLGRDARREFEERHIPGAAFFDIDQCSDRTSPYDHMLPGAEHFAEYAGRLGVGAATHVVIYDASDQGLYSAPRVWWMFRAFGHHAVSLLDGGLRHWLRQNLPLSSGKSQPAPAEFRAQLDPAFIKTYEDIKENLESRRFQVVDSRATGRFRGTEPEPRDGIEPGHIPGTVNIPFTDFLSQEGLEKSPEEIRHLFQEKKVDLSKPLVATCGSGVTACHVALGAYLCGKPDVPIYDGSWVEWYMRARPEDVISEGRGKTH
UniProt Q9HBH9: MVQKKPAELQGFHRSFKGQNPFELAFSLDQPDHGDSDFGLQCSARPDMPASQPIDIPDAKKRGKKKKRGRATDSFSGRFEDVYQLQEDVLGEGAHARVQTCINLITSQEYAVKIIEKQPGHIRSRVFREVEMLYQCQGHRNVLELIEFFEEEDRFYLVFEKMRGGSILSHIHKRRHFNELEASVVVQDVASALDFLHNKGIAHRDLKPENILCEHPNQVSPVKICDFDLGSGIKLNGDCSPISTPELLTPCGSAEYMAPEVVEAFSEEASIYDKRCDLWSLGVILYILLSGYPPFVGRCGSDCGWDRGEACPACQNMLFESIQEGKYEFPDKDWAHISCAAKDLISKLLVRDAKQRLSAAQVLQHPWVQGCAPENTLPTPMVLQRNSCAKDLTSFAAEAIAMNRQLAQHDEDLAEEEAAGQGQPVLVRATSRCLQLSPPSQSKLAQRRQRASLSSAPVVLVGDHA
UniProt Q7Z3K6: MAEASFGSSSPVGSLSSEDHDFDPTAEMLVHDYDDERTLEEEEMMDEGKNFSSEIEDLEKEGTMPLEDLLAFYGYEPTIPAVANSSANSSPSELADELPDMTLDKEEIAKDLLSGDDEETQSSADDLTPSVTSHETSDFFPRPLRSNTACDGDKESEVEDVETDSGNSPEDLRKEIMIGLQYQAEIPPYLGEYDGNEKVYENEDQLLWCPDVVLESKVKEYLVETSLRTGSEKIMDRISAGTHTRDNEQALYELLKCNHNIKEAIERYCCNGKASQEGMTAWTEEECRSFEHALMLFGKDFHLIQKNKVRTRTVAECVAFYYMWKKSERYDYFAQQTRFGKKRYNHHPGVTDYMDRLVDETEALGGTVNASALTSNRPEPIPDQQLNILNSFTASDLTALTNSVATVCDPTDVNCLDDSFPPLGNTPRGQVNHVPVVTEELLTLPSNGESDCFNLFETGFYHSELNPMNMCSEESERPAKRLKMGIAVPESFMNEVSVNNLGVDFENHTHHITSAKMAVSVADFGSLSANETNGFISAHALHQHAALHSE
UniProt Q15773: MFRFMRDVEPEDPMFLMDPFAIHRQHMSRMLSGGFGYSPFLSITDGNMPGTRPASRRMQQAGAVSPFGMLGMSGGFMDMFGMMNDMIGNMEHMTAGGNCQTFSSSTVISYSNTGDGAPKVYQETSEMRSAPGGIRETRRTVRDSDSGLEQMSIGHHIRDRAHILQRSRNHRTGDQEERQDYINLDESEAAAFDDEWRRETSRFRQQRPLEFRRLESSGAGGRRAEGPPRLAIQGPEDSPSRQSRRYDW
UniProt P16455, whole entry, looked up: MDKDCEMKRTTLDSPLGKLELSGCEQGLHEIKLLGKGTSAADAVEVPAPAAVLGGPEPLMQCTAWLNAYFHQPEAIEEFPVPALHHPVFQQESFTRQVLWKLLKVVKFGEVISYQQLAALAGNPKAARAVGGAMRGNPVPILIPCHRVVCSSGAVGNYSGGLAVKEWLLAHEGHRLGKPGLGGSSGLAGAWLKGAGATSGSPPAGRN
UniProt Q95460, whole entry, looked up: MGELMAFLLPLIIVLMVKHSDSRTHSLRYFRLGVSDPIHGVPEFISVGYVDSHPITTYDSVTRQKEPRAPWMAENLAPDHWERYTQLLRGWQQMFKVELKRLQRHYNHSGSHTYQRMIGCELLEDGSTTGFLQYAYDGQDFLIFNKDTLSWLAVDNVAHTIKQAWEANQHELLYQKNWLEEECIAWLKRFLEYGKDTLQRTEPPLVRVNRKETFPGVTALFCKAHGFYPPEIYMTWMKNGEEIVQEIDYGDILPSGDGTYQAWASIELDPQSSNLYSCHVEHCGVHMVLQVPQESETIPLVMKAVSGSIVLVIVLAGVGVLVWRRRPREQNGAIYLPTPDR

[1] = compound: Cn1cc(-c2ccc3c(c2)CCN3C(=O)Cc2cccc(C(F)(F)F)c2)c2c(N)ncnc21
How it was run: as §1

nilotinib = compound: Cc1cn(-c2cc(NC(=O)c3ccc(C)c(Nc4nccc(-c5cccnc5)n4)c3)cc(C(F)(F)F)c2)cn1 [nilotinib]
How it was run: as §1

[2] = compound: Cc1nc(Nc2n[nH]c3c2CN(C(=O)N[C@H](CN(C)C)c2ccccc2)C3(C)C)c2sccc2n1
How it was run: as §1

[3] = compound: Cc1ncc(-c2ccnc(Nc3ccc(S(C)(=O)=O)cc3)n2)n1C(C)C
How it was run: as §1

quisinostat = compound: Cn1cc(CNCC2CCN(c3ncc(C(=O)NO)cn3)CC2)c2ccccc21 [quisinostat]
How it was run: as §1

tipifarnib = compound: Cn1cncc1[C@@](N)(c1ccc(Cl)cc1)c1ccc2c(c1)c(-c1cccc(Cl)c1)cc(=O)n2C [tipifarnib]
How it was run: as §1

[4] = compound: NC(=O)Nc1cc(-c2cccc(F)c2)sc1C(=O)N[C@H]1CCCNC1
How it was run: as §1

[5] = compound: NC(=O)c1cnc(N[C@@H]2CCCC[C@@H]2N)nc1Nc1cccc(-n2nccn2)c1
How it was run: as §1

[6] = compound: NC1(c2ccc(-c3nc4ccn5c(=O)[nH]nc5c4cc3-c3ccccc3)cc2)CCC1
How it was run: as §1

Measured: log2 fold change

MKKS (UniProt Q9NPJ1)
inactive: dasatinib 0.001 | [1] 0.074

MGST2 (UniProt Q99735)
inactive: nilotinib 0.02 | [2] 0.038 | dasatinib -0.096 | [3] 0.027 | [1] 0.011 | quisinostat -0.053 | tipifarnib -0.104 | [4] -0.022 | [5] 0.034 | [6] -0.012

MGRN1 isoform 2 (UniProt O60291)
inactive: dasatinib -0.132 | [1] 0.062 | quisinostat -0.17 | [4] -0.107 | [5] -0.056 | [6] -0.107

MINK1 (UniProt Q8N4C8)
active: [4] 0.782
inactive: nilotinib -0.227 | [2] -0.206 | dasatinib -0.077 | [3] 0.199 | [1] -0.016 | quisinostat -0.062 | tipifarnib 0.289 | [5] -0.023 | [6] 0.02

MPHOSPH8 (UniProt Q99549)
inactive: dasatinib 0.065 | [1] -0.041 | quisinostat -0.07 | [4] 0.012 | [5] 0.018 | [6] 0.027

MIGA2 (UniProt Q7L4E1)
inactive: dasatinib -0.056 | [1] -0.007 | [6] -0.239

MIDEAS, A0A1C7CYX1
inactive: dasatinib -0.086 | [1] -0.122 | quisinostat -0.33 | [4] 0.168 | [5] -0.027 | [6] -0.097

Random excerpt: 2 records from the list, in no set order.
MINK1 (UniProt Q8N4C8)
active: [4] 0.782
inactive: nilotinib -0.227 | [2] -0.206 | dasatinib -0.077 | [3] 0.199 | [1] -0.016 | quisinostat -0.062 | tipifarnib 0.289 | [5] -0.023 | [6] 0.02

MGRN1 isoform 2 (UniProt O60291)
inactive: dasatinib -0.132 | [1] 0.062 | quisinostat -0.17 | [4] -0.107 | [5] -0.056 | [6] -0.107

Next entries follow:

MID1IP1 (UniProt Q9NPA3)
inactive: nilotinib -0.048 | [2] 0.013 | dasatinib -0.04 | [3] 0.021 | [1] -0.036 | quisinostat -0.012 | tipifarnib 0 | [4] 0.027 | [6] 0.126

MIER2 (UniProt Q8N344)
inactive: dasatinib 0.174 | [1] -0.096 | [6] -0.121

MIIP (UniProt Q5JXC2)
inactive: quisinostat -0.02 | [4] 0.015 | [6] -0.165

MITF (UniProt O75030)
inactive: dasatinib 0.038 | [1] 0.054 | quisinostat -0.01 | [4] 0.006 | [6] 0.043

MPHOSPH9 (UniProt Q99550)
inactive: quisinostat -0.085 | [4] 0.039 | [6] 0.112

MROH1 (UniProt Q8NDA8)
inactive: dasatinib -0.115 | [1] -0.117 | quisinostat -0.167 | [4] 0.037

MOCS2 (UniProt O96033)
inactive: dasatinib 0.044 | [1] -0.026 | quisinostat -0.011 | [4] 0.025 | [5] -0.033

MPP5 (UniProt Q8N3R9)
inactive: nilotinib 0.015 | [2] -0.013 | dasatinib 0.028 | [3] -0.069 | [1] 0.009 | quisinostat -0.052 | tipifarnib 0.142 | [4] 0.002 | [6] -0.053

MRE11 (UniProt F8W7U8)
inactive: [5] 0.034

MIPOL1 (UniProt Q8TD10)
inactive: dasatinib 0.009 | [1] 0 | quisinostat -0.596 | [4] -0.118 | [5] 0.171 | [6] -0.039

MNX1 (UniProt P50219)
inactive: dasatinib 0.007 | [1] -0.039 | quisinostat -0.008 | [4] 0.103 | [5] -0.177 | [6] 0.118

MINDY2 (UniProt Q8NBR6)
inactive: nilotinib 0.086 | [2] -0.062 | [3] 0.005 | quisinostat 0.033 | tipifarnib -0.058 | [4] 0.086 | [5] -0.027

MNT (UniProt Q99583)
inactive: dasatinib 0.161 | [1] -0.088 | quisinostat -0.089 | [4] 0.015 | [5] -0.015 | [6] 0.038

MPST isoform 2 (UniProt P25325)
inactive: nilotinib 0.006 | [2] -0.002 | dasatinib 0.001 | [3] -0.003 | [1] -0.014 | quisinostat 0 | tipifarnib 0.07 | [4] 0.014 | [5] 0.01 | [6] 0

MKNK2 (UniProt Q9HBH9)
inactive: nilotinib -0.1 | [2] -0.093 | dasatinib -0.141 | [3] -0.025 | [1] 0.14 | tipifarnib -0.11 | [6] -0.137

MIER3 isoform 2 (UniProt Q7Z3K6)
inactive: nilotinib -0.107 | [2] 0.032 | dasatinib -0.023 | [3] 0.019 | [1] -0.016 | quisinostat 0.037 | tipifarnib 0.016 | [4] 0.051 | [6] -0.011

MKKS (UniProt Q9HB66)
inactive: [5] -0.023 | [6] 0.013

MLF2 (UniProt Q15773)
inactive: nilotinib -0.1 | [2] 0.013 | dasatinib -0.059 | [3] -0.059 | [1] -0.083 | quisinostat -0.028 | tipifarnib -0.071 | [4] 0.01 | [6] -0.079

MRC2 (UniProt Q9UBG0)
inactive: nilotinib -0.001 | [2] -0.055 | dasatinib -0.201 | [3] 0.26 | [1] 0.073 | quisinostat -0.056 | tipifarnib 0.083 | [4] 0.144 | [6] 0.068

MGMT (UniProt P16455)
inactive: dasatinib -0.098 | [1] -0.102

MRPL22 (UniProt Q9NWU5)
inactive: nilotinib 0.04 | [2] 0.017 | [3] 0.03 | quisinostat 0.025 | tipifarnib -0.003 | [4] -0.001 | [5] -0.073 | [6] 0.081

MOCS3 (UniProt O95396)
inactive: nilotinib -0.008 | [2] -0.054 | dasatinib -0.056 | [3] 0.056 | [1] -0.049 | quisinostat -0.219 | tipifarnib 0.045 | [4] -0.054 | [6] -0.03

MLKL (UniProt Q8NB16)
inactive: nilotinib -0.011 | [2] -0.036 | [3] -0.169 | quisinostat -0.141 | tipifarnib 0.037 | [4] 0.015 | [5] -0.039 | [6] -0.126

MR1 (UniProt Q95460)
inactive: dasatinib -0.03 | [1] -0.052 | [6] -0.06

Reference: the supplement of paper PMC10849652
